No constants are given. Whether binding was seen depends on the method and setting. Some results given as binding are weak or reduced against the parent protein; the word gives no strength.
Molecular target: interleukin 8 (CXCL8) (100-175: Shenandoah Biotechnology, Inc.) (UniProt P10145)
Assay: SPR (Biacore 8K)

The chains behind the UniProt entries cited, without tags or fusion partners. Residues count along the entry.
UniProt P10145, residues 28-99: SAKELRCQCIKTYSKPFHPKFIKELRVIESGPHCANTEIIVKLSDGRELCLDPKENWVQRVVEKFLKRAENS

binding: binds
B1: R3 variant of anti-IL-8 antibody (clone 146-1) (Fab, V domains shown, not shown: a dimerising Fc or GST)
VH: EVQLVESGGGLVKPGGSLKLSCAASGFTFSSYAMSWVRQTPEKRLEWVATISNGGSYTYYPDSLKGRFTISRDNAKNTLYLQMSSLRSEDTAIYYCARGITGGVYFDYWGQGTTLTVSS
VL: DIQMTQSPASLSASVGETVTITCRASENIYSYLAWYQQKQGKSPHLLVYDAETLAEGVPSRFRGRGRGTQFSLKINSLQPEDFGSYYCQHHYGTPWTFGGGTKLEIKR
